Values from PubChem BioAssay AID686943 (Drosophila RNAi Screening Center, 2013)

Screen: 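Search across the genome for regulators of signalling from receptor tyrosine kinase to ERK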 (primary screen)
System: Drosophila S2R+ haemocyte-like cells expressing YFP-tagged ERK (Rolled)
Knock-down reagent: long dsRNA against Drosophila genes
Treatment: insulin stimulation versus unstimulated cells; dose and duration not given
Measurement: 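Per-plate z-scores of phospho-ERK immunostaining normalised to YFP-tagged ERK, measured with and without insulin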
Direction: replicate 1, z-score of dpERK with insulin and replicate 2, z-score of dpERK with insulin: higher = more active ERK per ERK-YFP after insulin
The deposit covers about 23,000 reagents; shown is an unselected part of those with a known target gene and a result. 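Extra replicates exist only for a retested subset of genes; insulin dose and duration not given; both raised and lowered dpERK matter.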 Further read-outs or replicates are left out here. The record does not give: the amount of reagent, the time to read-out.

How did the screen score Cyp4c3 (GeneID 43663) [SID104196423]?
replicate 1, z-score of dpERK with insulin: -0.44; replicate 2, z-score of dpERK with insulin: -0.9

For CG9467 (GeneID 41207) [SID104196290], what does the deposit list?
replicate 1, z-score of dpERK with insulin: -0.15; replicate 2, z-score of dpERK with insulin: -0.01

For CG42319 (GeneID 36473) [SID104186437], what does the deposit list?
replicate 1, z-score of dpERK with insulin: 0.11; replicate 2, z-score of dpERK with insulin: -0.29

What did the screen give for CG42319 (GeneID 36473) [SID104186438]?
replicate 1, z-score of dpERK with insulin: 0.01; replicate 2, z-score of dpERK with insulin: 0.48

How did the screen score CG42319 (GeneID 36473) [SID104201897]?
replicate 1, z-score of dpERK with insulin: 0.35; replicate 2, z-score of dpERK with insulin: 0.24

What did the screen give for Prim2 (GeneID 44915) [SID104191402]?
replicate 1, z-score of dpERK with insulin: -1.63; replicate 2, z-score of dpERK with insulin: -0.64

What did the screen give for Hsp68 (GeneID 42852) [SID104196504]?
replicate 1, z-score of dpERK with insulin: 1.37; replicate 2, z-score of dpERK with insulin: 0

How did the screen score CG10195 (GeneID 35228) [SID104181818]?
replicate 1, z-score of dpERK with insulin: 1.19; replicate 2, z-score of dpERK with insulin: 2.82

With l(3)L1231 (GeneID 41776) [SID104196115], what was measured?
replicate 1, z-score of dpERK with insulin: 0.67; replicate 2, z-score of dpERK with insulin: 0.04

With CG18294 (GeneID 40115) [SID104189683], how do the results read?
replicate 1, z-score of dpERK with insulin: 0.31; replicate 2, z-score of dpERK with insulin: -0.96

For CG32563 (GeneID 32706) [SID104199726], what was measured?
replicate 1, z-score of dpERK with insulin: -0.35; replicate 2, z-score of dpERK with insulin: 0.6

For CG10163 (GeneID 38728) [SID104189502], what does the deposit list?
replicate 1, z-score of dpERK with insulin: 0.02; replicate 2, z-score of dpERK with insulin: 0.44

With vib (GeneID 42306) [SID104196886], what does the deposit list?
replicate 1, z-score of dpERK with insulin: 0.23; replicate 2, z-score of dpERK with insulin: -0.9

For CG12096 (GeneID 32269) [SID104201372], what does the deposit list?
replicate 1, z-score of dpERK with insulin: -0.05; replicate 2, z-score of dpERK with insulin: 0.18

Sorted by “replicate 2, z-score of dpERK with insulin” (high to low): 5 of the entries above.
CG10195 (GeneID 35228) [SID104181818] — replicate 1, z-score of dpERK with insulin: 1.19; replicate 2, z-score of dpERK with insulin: 2.82
CG32563 (GeneID 32706) [SID104199726] — replicate 1, z-score of dpERK with insulin: -0.35; replicate 2, z-score of dpERK with insulin: 0.6
CG10163 (GeneID 38728) [SID104189502] — replicate 1, z-score of dpERK with insulin: 0.02; replicate 2, z-score of dpERK with insulin: 0.44
l(3)L1231 (GeneID 41776) [SID104196115] — replicate 1, z-score of dpERK with insulin: 0.67; replicate 2, z-score of dpERK with insulin: 0.04
CG18294 (GeneID 40115) [SID104189683] — replicate 1, z-score of dpERK with insulin: 0.31; replicate 2, z-score of dpERK with insulin: -0.96

Further reagents:
With CG31036 (GeneID 43539) [SID104194847], what does the deposit list?
replicate 1, z-score of dpERK with insulin: 0.81; replicate 2, z-score of dpERK with insulin: -0.05

With CG31036 (GeneID 43539) [SID104194849], how do the results read?
replicate 1, z-score of dpERK with insulin: -0.2; replicate 2, z-score of dpERK with insulin: -0.97

What did the screen give for CG7448 (retired record) (GeneID 40440) [SID104191620]?
replicate 1, z-score of dpERK with insulin: -0.49; replicate 2, z-score of dpERK with insulin: -0.2

What is on record for CG7448 (retired record) (GeneID 40440) [SID104201939]?
replicate 1, z-score of dpERK with insulin: -3.26; replicate 2, z-score of dpERK with insulin: 0.1

With CG40486 (GeneID 3355162) [SID104200411], what was measured?
replicate 1, z-score of dpERK with insulin: -0.9; replicate 2, z-score of dpERK with insulin: -3.13

With lmd (GeneID 42717) [SID104195410], what does the deposit list?
replicate 1, z-score of dpERK with insulin: 0.82; replicate 2, z-score of dpERK with insulin: -0.1

What is on record for CG9459 (GeneID 41213) [SID104196288]?
replicate 1, z-score of dpERK with insulin: 1.01; replicate 2, z-score of dpERK with insulin: 0.75

Which result is listed for l(3)76BDm (GeneID 40140) [SID104190839]?
replicate 1, z-score of dpERK with insulin: 0.3; replicate 2, z-score of dpERK with insulin: 0.51

With PK2-R1 (GeneID 41639) [SID104196239], how do the results read?
replicate 1, z-score of dpERK with insulin: -1.16; replicate 2, z-score of dpERK with insulin: 0.35

What is on record for CG6933 (GeneID 40214) [SID104190543]?
replicate 1, z-score of dpERK with insulin: -0.21; replicate 2, z-score of dpERK with insulin: -0.21

With CG44153 (GeneID 34341) [SID104180910], what does the deposit list?
replicate 1, z-score of dpERK with insulin: -0.24; replicate 2, z-score of dpERK with insulin: -0.4

What is on record for CG44153 (GeneID 34341) [SID104182020]?
replicate 1, z-score of dpERK with insulin: -0.04; replicate 2, z-score of dpERK with insulin: 0.16

What did the screen give for CG44153 (GeneID 34341) [SID104182021]?
replicate 1, z-score of dpERK with insulin: -0.35; replicate 2, z-score of dpERK with insulin: 0.14

For CG44153 (GeneID 34341) [SID104182023], how do the results read?
replicate 1, z-score of dpERK with insulin: -0.21; replicate 2, z-score of dpERK with insulin: 0.58

With CG44153 (GeneID 34341) [SID104182025], how do the results read?
replicate 1, z-score of dpERK with insulin: -0.76; replicate 2, z-score of dpERK with insulin: -1.02

With CG44153 (GeneID 34341) [SID104182694], how do the results read?
replicate 1, z-score of dpERK with insulin: -0.67; replicate 2, z-score of dpERK with insulin: -0.29

With CG44153 (GeneID 34341) [SID104182695], how do the results read?
replicate 1, z-score of dpERK with insulin: -1.54; replicate 2, z-score of dpERK with insulin: -0.35

Which result is listed for ChLD3 (GeneID 35002) [SID104182432]?
replicate 1, z-score of dpERK with insulin: 0.82; replicate 2, z-score of dpERK with insulin: -0.12

What did the screen give for Nadk2 (GeneID 35918) [SID104186864]?
replicate 1, z-score of dpERK with insulin: 0.1; replicate 2, z-score of dpERK with insulin: -0.67

What did the screen give for DIP-delta (GeneID 5740816) [SID104190006]?
replicate 1, z-score of dpERK with insulin: 1.54; replicate 2, z-score of dpERK with insulin: -0.36

With DIP-delta (GeneID 5740816) [SID104190242], how do the results read?
replicate 1, z-score of dpERK with insulin: 0.31; replicate 2, z-score of dpERK with insulin: 1.08

Which result is listed for Atac3 (GeneID 38055) [SID104188371]?
replicate 1, z-score of dpERK with insulin: 0.38; replicate 2, z-score of dpERK with insulin: 0.7

With CG17712 (GeneID 33356) [SID104180058], what was measured?
replicate 1, z-score of dpERK with insulin: -0.24; replicate 2, z-score of dpERK with insulin: 0.91

What is on record for Drep1 (GeneID 36290) [SID104187319]?
replicate 1, z-score of dpERK with insulin: -0.16; replicate 2, z-score of dpERK with insulin: -0.18

What did the screen give for CG8323 (GeneID 36566) [SID104186941]?
replicate 1, z-score of dpERK with insulin: 0.2; replicate 2, z-score of dpERK with insulin: 0.42

For Kdm4B (GeneID 318918) [SID104186654], how do the results read?
replicate 1, z-score of dpERK with insulin: 1.05; replicate 2, z-score of dpERK with insulin: 1.09
